Reference: patent US6017511A (Resolution Pharmaceuticals Inc., priority 1997, dated 2000)

Assay: general procedure: Fmoc solid-phase peptide synthesis; preloaded Fmoc-glycine sasrin resin (0.7 mmol/g); HBTU/HOBT
Conditions: for crude HPLC purity / crude mass / isolated yield / isolated mass: whole synthesis; for crude HPLC purity / isolated yield: scale of the general procedure 1.0 mmol; for conjugation yield: conjugation step

With “DimethylGly-Ser-Cys(Acm)-(βAla)3 -Lys(N^ε -Vancomycin)-Gly-OH” the “crude HPLC purity” value (run 1) was 21%, the “crude HPLC purity” value (run 2) was 31% and the crude mass (scale 50 mg (24.5 μmol) resin) was 24 mg. The crude mass (scale 50 mg (25 μmol) resin) was 10 mg, the isolated yield (run 1) was 4% and the isolated yield (run 2) was 11%. It also gave an isolated mass (run 1) of 2 mg and an isolated mass (run 2) of 6 mg.

“DimethylGly-Ser-Cys(Acm)-Gly-NH(CH2)3 NH2” showed a step yield (late stage modification step) of 65%.

Substance “DimethylGly-Ser-Cys(Acm)-Gly-NH(CH2)3 NH-Vancomycin” has a conjugation yield (run 1) of 64% and a conjugation yield (run 2) of 75%.

For “dimethylGly-Ser(t-Butyl)-Cys(Acm)-(βA3)-Lys(N^ε -Vancomycin)-Gly-OH”, the step yield (purification step) was 27% and the “crude HPLC purity” value was 34%.
